{
  "source": "patent US10406264B2",
  "about": "“Peptide having titanium-binding ability” (NANO INTELLIGENT BIOMEDICAL ENGINEERING CORPORATION. CO. LTD, priority 2016, dated 2019)",
  "key": {"[1]": {"test_system": "periodontal ligament stem cells (PDLSCs)", "assay": "mineralization of periodontal ligament stem cells (Alizarin red S) on coated titanium discs", "assay_type": "cell-based", "details": "for mineral production, visually observed: day 18, Alizarin red S staining, FIG. 8; for mineralization (absorbance at 570 nm), difference versus NT (negative control) group: day 18, significant p<0.05, not significant p>0.05", "procedure": "Specifically, one titanium disc was placed in each well of a 24-well low-attachment polystyrene plate and blocked with a blocking solution (0.1 M NaHCO3 (pH 8.6), 5 mg/ml BSA, 0.02% NaN3 (optional), filter sterilize) for at least 1 hour. […] Each well was incubated at room temperature for 15 hours, and then washed three times or more with a washing solution (DPBS). Next, 3×10^4 PDLSC cells suspended in 50 μl of a medium (Minimum Essential Medium Eagle Alpha Modifications, Hyclone, USA) containing 10% FBS (Fetal Bovine Serum) and 1% antibiotic-antimycotic solution (Thermo Fisher Scientific, USA) were dispensed per titanium disc."}, "[2]": {"test_system": "periodontal ligament stem cells (PDLSCs)", "assay": "ALP activity in periodontal ligament stem cells on coated titanium discs", "assay_type": "cell-based", "details": "for ALP activity on day 10 of culture, difference versus NT (negative control) group: day 10, FIG. 7, significant p<0.05, not significant p>0.05; for change in ALP activity during 18 days of culture: single coating, days 0, 6, 10, 13, 18, FIG. 6"}},
  "note": "Not every detail of the peptide structures is certain; ends, links or a residue may be inferred. Where a SMILES comes first, the peptide text is derived from it. Where no end group is shown, it is not given here. [ ]: non-standard residue; d: D form. Ahx = NCCCCCC(=O)O",
  "data": [
    {"molecule": "CC[C@H](C)[C@H](NC(=O)[C@H](CC(=O)O)NC(=O)[C@@H]1CCCN1C(=O)[C@H](CCCNC(=N)N)NC(=O)[C@H](CCCNC(=N)N)NC(=O)[C@H](Cc1ccccc1)NC(=O)[C@H](CCCCN)NC(=O)[C@H](CCCCN)NC(=O)[C@H](CO)NC(=O)[C@H](CCCCN)NC(=O)[C@H](CO)NC(=O)[C@H](CCCNC(=N)N)NC(=O)[C@H](CC(C)C)NC(=O)CNC(=O)CCCCCNC(=O)[C@H](Cc1c[nH]cn1)NC(=O)[C@@H](NC(=O)[C@@H](NC(=O)[C@@H]1CCCN1C(=O)[C@H](CCCNC(=N)N)NC(=O)[C@H](Cc1c[nH]cn1)NC(=O)CNC(=O)[C@@H](NC(=O)[C@H](Cc1ccc(O)cc1)NC(=O)[C@H](CC(N)=O)NC(=O)[C@H](CC(C)C)NC(=O)[C@@H](N)CO)[C@@H](C)O)C(C)C)C(C)C)C(=O)N[C@@H](CCC(N)=O)C(=O)N[C@@H](Cc1ccc(O)cc1)C(=O)N1CCC[C@H]1C(=O)N[C@@H](CC(=O)O)C(=O)N[C@@H](C)C(N)=O", "note": "[TBP-Linker-osteogenic peptide] (H-SLNYTGHRPVVH[Ahx]GLRSKSKKFRRPDIQYPDA-NH2)", "values": [
      {"measurement": "mineral production, visually observed", "setting": "[1]", "value": "actively occurred"},
      {"measurement": "mineralization (absorbance at 570 nm), difference versus NT (negative control) group", "setting": "[1]", "value": "statistically significant difference"},
      {"measurement": "ALP activity on day 10 of culture, difference versus NT (negative control) group", "setting": "[2]", "value": "statistically significant difference"},
      {"measurement": "change in ALP activity during 18 days of culture", "setting": "[2]", "value": "statistically significant change in ALP activity"}
    ]},
    {"molecule": "GLRSKSKKFRRPDIQYPDA-NH2 [Osteogenic peptide, reference compound]", "values": [
      {"measurement": "mineralization (absorbance at 570 nm), difference versus NT (negative control) group", "setting": "[1]", "value": "no statistically significant difference"},
      {"measurement": "ALP activity on day 10 of culture, difference versus NT (negative control) group", "setting": "[2]", "value": "no statistically significant difference"},
      {"measurement": "change in ALP activity during 18 days of culture", "setting": "[2]", "value": "significant change in ALP activity was not observed"}
    ]},
    {"molecule": "SLNYTGHRPVVHGLRSKSKKFRRPDIQYPDA-NH2 [TBP-osteogenic peptide]", "values": [
      {"measurement": "mineral production, visually observed", "setting": "[1]", "value": "actively occurred"},
      {"measurement": "mineralization (absorbance at 570 nm), difference versus NT (negative control) group", "setting": "[1]", "value": "statistically significant difference"},
      {"measurement": "ALP activity on day 10 of culture, difference versus NT (negative control) group", "setting": "[2]", "value": "statistically significant difference"},
      {"measurement": "change in ALP activity during 18 days of culture", "setting": "[2]", "value": "statistically significant change in ALP activity"}
    ]}
  ]
}
